± gives the standard deviation of the averaged measurements. The entries are a selection whose mix differs from that of the whole data set.
Compound: Nc1ncnc2c1ncn2[C@@H]1O[C@H](COP(=O)(O)OP(=O)(O)OP(=O)(O)O)[C@@H](O)[C@H]1O [adenosine triphosphate]
Experiment: NP40-soluble protein abundance relative to vehicle (solubility fold change) (ratio); higher = more soluble protein in presence of ATP
Outline: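 Values are fold changes against the detergent-processed vehicle, based on vsn-normalised intensities. Jurkat crude lysate was treated at eight concentrations from 0.1 to 10 mM (10 min at room temperature, then 3 min at 37 °C), solubilised with 0.8% NP40 and benzonase, ultracentrifuged and analysed by TMT-labelled LC-MS/MS over three independent experiments.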

Chains of the proteins cited; added tags and fusions are not shown. Lines headed by an entry give the natural chain unless they say otherwise; changes in a name come on top.
UniProt Q15369, whole entry: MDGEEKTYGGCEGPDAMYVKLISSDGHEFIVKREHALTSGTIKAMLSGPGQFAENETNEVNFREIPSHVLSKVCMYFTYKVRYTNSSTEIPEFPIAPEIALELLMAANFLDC
UniProt O00214: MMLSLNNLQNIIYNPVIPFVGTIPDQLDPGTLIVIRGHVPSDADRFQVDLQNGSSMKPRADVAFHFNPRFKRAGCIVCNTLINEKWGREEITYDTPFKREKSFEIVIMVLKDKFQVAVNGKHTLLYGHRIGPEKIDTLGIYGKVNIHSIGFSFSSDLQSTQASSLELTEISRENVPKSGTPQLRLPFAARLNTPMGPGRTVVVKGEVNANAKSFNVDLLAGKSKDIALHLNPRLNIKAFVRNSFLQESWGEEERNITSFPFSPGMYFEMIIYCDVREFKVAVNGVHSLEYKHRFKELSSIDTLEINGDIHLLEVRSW
UniProt Q5HYJ3: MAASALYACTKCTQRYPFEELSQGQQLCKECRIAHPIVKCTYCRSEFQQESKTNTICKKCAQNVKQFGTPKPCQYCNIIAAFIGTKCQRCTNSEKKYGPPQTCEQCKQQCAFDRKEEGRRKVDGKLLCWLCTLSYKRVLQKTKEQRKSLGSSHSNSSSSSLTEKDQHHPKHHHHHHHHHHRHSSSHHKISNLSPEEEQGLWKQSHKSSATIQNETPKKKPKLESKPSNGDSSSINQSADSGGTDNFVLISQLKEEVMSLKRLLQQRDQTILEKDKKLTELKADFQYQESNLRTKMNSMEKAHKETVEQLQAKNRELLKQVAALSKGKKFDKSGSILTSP
UniProt Q6NXR4: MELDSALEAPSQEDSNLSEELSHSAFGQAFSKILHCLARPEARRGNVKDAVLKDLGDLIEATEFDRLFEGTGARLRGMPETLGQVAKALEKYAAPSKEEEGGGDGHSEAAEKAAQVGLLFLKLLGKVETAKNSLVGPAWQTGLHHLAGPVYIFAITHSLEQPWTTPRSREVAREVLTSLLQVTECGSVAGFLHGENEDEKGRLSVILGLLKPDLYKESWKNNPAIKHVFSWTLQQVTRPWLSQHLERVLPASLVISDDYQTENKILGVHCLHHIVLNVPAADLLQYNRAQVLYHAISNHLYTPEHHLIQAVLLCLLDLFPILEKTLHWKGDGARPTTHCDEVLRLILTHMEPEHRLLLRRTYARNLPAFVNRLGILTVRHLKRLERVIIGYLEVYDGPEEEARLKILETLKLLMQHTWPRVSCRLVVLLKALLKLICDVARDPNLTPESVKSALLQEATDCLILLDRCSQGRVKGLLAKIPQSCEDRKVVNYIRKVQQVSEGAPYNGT
UniProt Q53GL7: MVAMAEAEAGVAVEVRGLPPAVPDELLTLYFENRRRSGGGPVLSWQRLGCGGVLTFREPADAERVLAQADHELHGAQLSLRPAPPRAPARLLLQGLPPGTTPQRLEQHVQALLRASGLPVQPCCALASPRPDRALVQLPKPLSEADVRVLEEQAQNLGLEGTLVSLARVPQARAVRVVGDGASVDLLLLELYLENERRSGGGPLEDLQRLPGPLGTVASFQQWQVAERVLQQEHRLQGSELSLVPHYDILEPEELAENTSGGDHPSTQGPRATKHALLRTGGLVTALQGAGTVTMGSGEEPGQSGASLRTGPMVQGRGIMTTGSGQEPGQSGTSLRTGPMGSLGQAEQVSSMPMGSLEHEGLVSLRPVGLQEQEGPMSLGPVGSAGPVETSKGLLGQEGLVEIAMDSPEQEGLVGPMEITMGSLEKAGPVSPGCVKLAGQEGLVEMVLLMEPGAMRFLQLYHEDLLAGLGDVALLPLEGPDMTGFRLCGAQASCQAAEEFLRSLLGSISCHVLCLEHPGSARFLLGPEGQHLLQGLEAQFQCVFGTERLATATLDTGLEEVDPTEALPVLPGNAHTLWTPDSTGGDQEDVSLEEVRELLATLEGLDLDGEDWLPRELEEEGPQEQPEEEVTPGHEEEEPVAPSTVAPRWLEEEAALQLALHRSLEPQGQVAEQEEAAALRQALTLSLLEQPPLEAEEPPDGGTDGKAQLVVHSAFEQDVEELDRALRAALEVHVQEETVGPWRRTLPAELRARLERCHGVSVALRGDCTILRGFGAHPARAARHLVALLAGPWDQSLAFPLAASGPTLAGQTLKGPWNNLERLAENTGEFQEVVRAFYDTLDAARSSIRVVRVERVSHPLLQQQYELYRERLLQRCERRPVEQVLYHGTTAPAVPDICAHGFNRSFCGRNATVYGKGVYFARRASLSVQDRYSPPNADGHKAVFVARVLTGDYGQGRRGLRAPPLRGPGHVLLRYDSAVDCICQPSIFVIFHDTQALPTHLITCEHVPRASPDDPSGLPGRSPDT
UniProt P10242: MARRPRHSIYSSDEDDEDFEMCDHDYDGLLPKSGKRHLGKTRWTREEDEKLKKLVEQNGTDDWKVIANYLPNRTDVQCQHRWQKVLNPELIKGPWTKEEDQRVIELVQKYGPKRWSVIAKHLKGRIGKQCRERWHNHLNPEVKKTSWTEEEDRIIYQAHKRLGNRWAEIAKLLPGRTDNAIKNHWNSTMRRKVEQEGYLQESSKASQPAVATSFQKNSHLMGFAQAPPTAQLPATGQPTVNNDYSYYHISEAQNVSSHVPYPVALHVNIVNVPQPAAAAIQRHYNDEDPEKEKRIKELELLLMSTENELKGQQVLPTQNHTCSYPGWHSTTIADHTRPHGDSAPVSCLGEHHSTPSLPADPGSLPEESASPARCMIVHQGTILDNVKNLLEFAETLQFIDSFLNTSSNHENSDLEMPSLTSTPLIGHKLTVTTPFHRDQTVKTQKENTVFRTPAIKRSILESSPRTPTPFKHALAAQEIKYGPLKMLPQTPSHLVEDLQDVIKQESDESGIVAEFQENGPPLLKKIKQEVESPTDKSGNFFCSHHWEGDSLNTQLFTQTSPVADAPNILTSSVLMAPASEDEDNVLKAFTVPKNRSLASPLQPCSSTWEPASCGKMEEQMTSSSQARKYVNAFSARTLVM
UniProt Q9BPY3: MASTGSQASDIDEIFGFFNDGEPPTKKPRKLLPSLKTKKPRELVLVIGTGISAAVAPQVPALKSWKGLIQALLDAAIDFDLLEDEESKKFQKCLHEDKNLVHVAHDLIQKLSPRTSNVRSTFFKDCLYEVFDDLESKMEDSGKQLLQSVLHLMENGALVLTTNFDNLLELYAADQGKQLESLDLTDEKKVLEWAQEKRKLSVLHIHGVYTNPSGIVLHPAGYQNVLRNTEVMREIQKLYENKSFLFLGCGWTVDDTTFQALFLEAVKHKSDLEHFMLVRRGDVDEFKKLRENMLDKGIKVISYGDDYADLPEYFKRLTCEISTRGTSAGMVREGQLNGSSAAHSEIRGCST
UniProt Q9UHX1: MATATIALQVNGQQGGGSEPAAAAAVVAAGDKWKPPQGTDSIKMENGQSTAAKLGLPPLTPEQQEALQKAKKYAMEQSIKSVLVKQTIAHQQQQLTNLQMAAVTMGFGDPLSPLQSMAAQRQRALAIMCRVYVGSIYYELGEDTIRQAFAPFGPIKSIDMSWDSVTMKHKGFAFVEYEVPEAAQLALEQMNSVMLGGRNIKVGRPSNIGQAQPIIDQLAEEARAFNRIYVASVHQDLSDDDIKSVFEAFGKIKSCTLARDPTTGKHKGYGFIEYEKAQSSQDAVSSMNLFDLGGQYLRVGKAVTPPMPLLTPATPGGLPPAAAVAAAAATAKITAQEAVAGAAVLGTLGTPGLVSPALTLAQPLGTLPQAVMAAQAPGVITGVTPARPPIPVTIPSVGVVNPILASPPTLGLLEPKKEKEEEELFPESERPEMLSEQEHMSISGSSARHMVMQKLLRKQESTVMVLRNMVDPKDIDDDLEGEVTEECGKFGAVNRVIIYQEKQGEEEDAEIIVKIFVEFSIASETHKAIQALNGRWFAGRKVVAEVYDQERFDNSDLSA
UniProt Q8NCB2: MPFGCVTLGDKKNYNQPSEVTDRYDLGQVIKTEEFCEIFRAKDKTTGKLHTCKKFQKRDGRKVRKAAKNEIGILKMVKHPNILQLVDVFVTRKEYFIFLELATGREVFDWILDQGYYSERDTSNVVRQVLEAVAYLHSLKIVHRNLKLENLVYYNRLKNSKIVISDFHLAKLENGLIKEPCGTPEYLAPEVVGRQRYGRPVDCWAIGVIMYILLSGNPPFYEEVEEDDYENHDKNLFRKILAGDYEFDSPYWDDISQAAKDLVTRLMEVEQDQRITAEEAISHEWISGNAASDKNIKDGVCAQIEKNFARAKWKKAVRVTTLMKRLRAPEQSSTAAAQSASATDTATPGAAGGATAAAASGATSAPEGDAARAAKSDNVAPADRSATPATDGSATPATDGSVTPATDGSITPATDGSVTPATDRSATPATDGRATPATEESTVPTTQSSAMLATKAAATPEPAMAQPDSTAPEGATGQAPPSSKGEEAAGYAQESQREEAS
UniProt O43491, whole entry: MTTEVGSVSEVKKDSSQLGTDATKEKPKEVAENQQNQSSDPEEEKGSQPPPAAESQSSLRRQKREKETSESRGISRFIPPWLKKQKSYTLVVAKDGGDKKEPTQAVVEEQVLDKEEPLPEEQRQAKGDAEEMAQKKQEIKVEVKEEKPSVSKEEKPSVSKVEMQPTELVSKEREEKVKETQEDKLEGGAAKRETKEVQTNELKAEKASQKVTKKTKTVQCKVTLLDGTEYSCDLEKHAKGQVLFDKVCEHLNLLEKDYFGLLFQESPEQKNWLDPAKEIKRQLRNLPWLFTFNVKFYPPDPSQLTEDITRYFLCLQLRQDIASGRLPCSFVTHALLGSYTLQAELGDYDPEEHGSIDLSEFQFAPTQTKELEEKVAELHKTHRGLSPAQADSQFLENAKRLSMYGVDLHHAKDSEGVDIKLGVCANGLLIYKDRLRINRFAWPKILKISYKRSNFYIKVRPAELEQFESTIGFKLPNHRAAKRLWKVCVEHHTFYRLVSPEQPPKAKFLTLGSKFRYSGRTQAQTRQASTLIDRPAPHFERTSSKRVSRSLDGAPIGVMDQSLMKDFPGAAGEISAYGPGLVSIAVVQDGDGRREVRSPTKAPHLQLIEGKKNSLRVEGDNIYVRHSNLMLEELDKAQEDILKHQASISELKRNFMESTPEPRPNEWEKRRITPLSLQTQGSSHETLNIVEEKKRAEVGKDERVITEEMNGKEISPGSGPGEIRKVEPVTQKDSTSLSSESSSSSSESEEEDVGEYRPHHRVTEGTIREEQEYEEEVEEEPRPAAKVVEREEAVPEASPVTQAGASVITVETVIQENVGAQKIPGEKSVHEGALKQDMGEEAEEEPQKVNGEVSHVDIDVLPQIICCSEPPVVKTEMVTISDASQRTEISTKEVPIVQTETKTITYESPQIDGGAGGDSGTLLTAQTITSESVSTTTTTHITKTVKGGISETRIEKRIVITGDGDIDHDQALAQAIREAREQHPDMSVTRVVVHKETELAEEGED
UniProt O00746: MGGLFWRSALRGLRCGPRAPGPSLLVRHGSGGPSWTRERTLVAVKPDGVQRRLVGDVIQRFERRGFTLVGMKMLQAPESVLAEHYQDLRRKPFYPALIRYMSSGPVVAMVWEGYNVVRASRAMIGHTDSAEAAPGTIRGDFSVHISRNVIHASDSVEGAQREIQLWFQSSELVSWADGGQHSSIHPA
UniProt O15182: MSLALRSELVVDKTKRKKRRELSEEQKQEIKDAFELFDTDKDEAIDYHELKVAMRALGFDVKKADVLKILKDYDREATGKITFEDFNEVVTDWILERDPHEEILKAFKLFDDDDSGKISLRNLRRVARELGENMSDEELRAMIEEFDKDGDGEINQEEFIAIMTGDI
UniProt Q9H6E5: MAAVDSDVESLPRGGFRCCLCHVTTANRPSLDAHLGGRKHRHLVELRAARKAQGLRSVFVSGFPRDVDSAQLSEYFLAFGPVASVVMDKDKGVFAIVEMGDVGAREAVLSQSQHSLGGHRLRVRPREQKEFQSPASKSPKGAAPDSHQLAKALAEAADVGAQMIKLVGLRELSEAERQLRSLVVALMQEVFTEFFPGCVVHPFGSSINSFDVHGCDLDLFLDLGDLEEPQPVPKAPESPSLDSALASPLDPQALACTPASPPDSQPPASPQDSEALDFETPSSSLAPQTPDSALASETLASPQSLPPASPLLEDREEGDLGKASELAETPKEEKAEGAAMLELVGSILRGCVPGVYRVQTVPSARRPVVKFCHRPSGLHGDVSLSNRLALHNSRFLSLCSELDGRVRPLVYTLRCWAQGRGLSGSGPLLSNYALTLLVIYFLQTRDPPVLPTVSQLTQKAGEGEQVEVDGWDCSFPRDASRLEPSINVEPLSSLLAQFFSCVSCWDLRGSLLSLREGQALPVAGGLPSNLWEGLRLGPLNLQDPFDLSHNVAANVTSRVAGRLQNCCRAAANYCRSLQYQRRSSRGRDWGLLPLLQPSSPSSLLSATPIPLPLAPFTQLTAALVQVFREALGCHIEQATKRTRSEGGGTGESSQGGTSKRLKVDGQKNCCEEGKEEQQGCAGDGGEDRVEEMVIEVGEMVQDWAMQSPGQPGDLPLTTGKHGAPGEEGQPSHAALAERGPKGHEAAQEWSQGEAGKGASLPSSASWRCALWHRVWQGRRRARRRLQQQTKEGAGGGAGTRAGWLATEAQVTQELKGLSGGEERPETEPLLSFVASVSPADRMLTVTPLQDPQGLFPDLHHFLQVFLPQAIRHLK

Row | Target | NP40-soluble protein abundance (concentration: 1mM) | NP40-soluble protein abundance (concentration: 2mM) | NP40-soluble protein abundance (concentration: 4mM) | NP40-soluble protein abundance (concentration: 6mM) | NP40-soluble protein abundance (concentration: 8mM) | NP40-soluble protein abundance (concentration: 10mM)
1 | F6T1Q0 and related entries (UniProt Q6L8Q7) | 1.05 ± 0.063 | 1.03 ± 0.08 | 1.03 ± 0.066 | 1.01 ± 0.11 | 1.04 ± 0.073 | 1.01 ± 0.054
2 | F2Z2X4 and related entries (UniProt Q9C0E2) | 1.02 ± 0.092 | 1.01 ± 0.11 | 1.01 ± 0.053 | 0.935 ± 0.11 | 1.03 ± 0.081 | 0.997 ± 0.031
3 | E5RHG8 and related entries (UniProt Q15369) | 1.02 ± 0.062 | 0.99 ± 0.011 | 0.94 ± 0.031 | 1.03 ± 0.036 | 0.948 ± 0.02 | 0.899 ± 0.034
4 | F6V2D4 and related entries (UniProt O00214) | 0.975 ± 0.066 | 0.999 ± 0.077 | 1.18 ± 0.35 | 1.05 ± 0.19 | 1.08 ± 0.16 | 1.04 ± 0.16
5 | F5GX09 and related entries (UniProt Q5HYJ3) | 0.884 ± 0.043 | 0.911 ± 0.012 | 0.923 ± 0.0053 | 0.969 ± 0.041 | 0.9096 ± 0.0071 | 0.96 ± 0.028
6 | E5RIH5 and related entries (UniProt Q6NXR4) | 0.942 ± 0.024 | 0.929 ± 0.027 | 0.929 ± 0.039 | 0.972 ± 0.011 | 0.958 ± 0.019 | 0.958 ± 0.067
7 | E9PF32 and related entries (UniProt A2RUS2) | 1.02 ± 0.13 | 0.982 ± 0.055 | 1 ± 0.038 | 0.944 ± 0.11 | 1.006 ± 0.0091 | 0.998 ± 0.045
8 | F6XUP2 and related entries (UniProt O43861) | 0.999 ± 0.019 | 0.983 ± 0.1 | 1.02 ± 0.14 | 1.03 ± 0.084 | 1.01 ± 0.11 | 0.915 ± 0.15
9 | E9PK67 and related entries (UniProt Q53GL7) | 0.997 ± 0.015 | 0.99 ± 0.022 | 0.982 ± 0.015 | 0.9698 ± 0.0013 | 0.947 ± 0.015 | 0.961 ± 0.034
10 | F8W8G5 and related entries (UniProt P10242) | 1.11 ± 0.034 | 1.1 ± 0.038 | 1.15 ± 0.062 | 1.15 ± 0.061 | 1.19 ± 0.096 | 1.21 ± 0.093
11 | E7ETY2 and related entries (UniProt Q13428) | 1.19 ± 0.12 | 1.17 ± 0.051 | 1.18 ± 0.062 | 1.3 ± 0.087 | 1.25 ± 0.049 | 1.23 ± 0.057
12 | G3XAJ6 and related entries (UniProt Q14699) | 0.964 ± 0.057 | 0.997 ± 0.036 | 1 ± 0.024 | 0.964 ± 0.018 | 0.976 ± 0.016 | 0.951 ± 0.025
13 | E7EMW7 and related entries (UniProt O95071) | 1.17 ± 0.043 | 1.11 ± 0.066 | 1.1 ± 0.062 | 1.12 ± 0.17 | 1.12 ± 0.13 | 1.11 ± 0.11
14 | E9PKF3 and related entries (UniProt P24752) | 0.972 ± 0.039 | 0.945 ± 0.014 | 0.909 ± 0.021 | 0.9699 ± 0.0024 | 0.929 ± 0.017 | 0.916 ± 0.01
15 | E9PMJ2 and related entries (UniProt Q9BPY3) | 0.978 ± 0.061 | 0.96 ± 0.037 | 0.968 ± 0.04 | 0.931 ± 0.045 | 0.944 ± 0.021 | 0.948 ± 0.043
16 | E9PC47 and related entries (UniProt P53667) | 1.02 ± 0.12 | 1.05 ± 0.036 | 1.05 ± 0.049 | 0.983 ± 0.012 | 0.95513 ± 0.00065 | 0.911 ± 0.0028
17 | E9PQ56 and related entries (UniProt Q9UHX1) | 1.277 ± 0.012 | 1.27 ± 0.036 | 1.24 ± 0.017 | 1.28 ± 0.047 | 1.285 ± 0.0088 | 1.26 ± 0.034
18 | F2Z2I2 and related entries (UniProt Q16875) | 1.02 ± 0.077 | 0.964 ± 0.076 | 0.976 ± 0.068 | 0.949 ± 0.11 | 0.981 ± 0.07 | 0.966 ± 0.032
19 | E7ETR1 and related entries (UniProt Q8NCB2) | 0.975 ± 0.089 | 1.1 ± 0.1 | 1.17 ± 0.034 | 1.21 ± 0.089 | 1.03 ± 0.034 | 1.08 ± 0.024
20 | E9PN89 and related entries (UniProt P11142) | 0.946 ± 0.074 | 0.991 ± 0.032 | 0.889 ± 0.053 | 1.01 ± 0.017 | 0.919 ± 0.032 | 0.907 ± 0.033
21 | E9PFW2 and related entries (UniProt O00462) | 1.02 ± 0.1 | 1.05 ± 0.12 | 1.04 ± 0.095 | 0.911 ± 0.1 | 0.991 ± 0.1 | 0.975 ± 0.063
22 | E9PHY5 and related entries (UniProt O43491) | 0.982 ± 0.042 | 0.9719 ± 0.005 | 0.964 ± 0.01 | 0.987 ± 0.016 | 0.941 ± 0.023 | 0.954 ± 0.029
23 | G3V5N8 and related entries (UniProt Q9HBF4) | 0.996 ± 0.05 | 0.986 ± 0.057 | 0.979 ± 0.07 | 0.946 ± 0.11 | 0.972 ± 0.025 | 0.949 ± 0.031
24 | F2Z2X0 and related entries (UniProt O00746) | 1.05 ± 0.024 | 1.11 ± 0.034 | 1.08 ± 0.04 | 1.05 ± 0.084 | 1.08 ± 0.045 | 1.1 ± 0.029
25 | E9PFK9 and related entries (UniProt Q9UJ41) | 0.981 ± 0.011 | 0.991 ± 0.014 | 0.988 ± 0.029 | 0.967 ± 0.049 | 0.9617 ± 0.0065 | 0.998 ± 0.038
26 | E5RJF8 and related entries (UniProt O15182) | 0.91 ± 0.065 | 0.923 ± 0.025 | 0.873 ± 0.057 | 0.991 ± 0.035 | 0.929 ± 0.029 | 0.945 ± 0.065
27 | F8WCF6 and related entries (UniProt P59998) | 0.968 ± 0.13 | 0.957 ± 0.091 | 0.909 ± 0.073 | 0.889 ± 0.12 | 0.943 ± 0.075 | 0.92 ± 0.06
28 | E7EX17 and related entries (UniProt P23588) | 0.982 ± 0.072 | 0.989 ± 0.04 | 1.01 ± 0.037 | 1.1 ± 0.051 | 1.035 ± 0.0085 | 1.05 ± 0.021
29 | F5H0R1 and related entries (UniProt Q9H6E5) | 0.9847 ± 0.0058 | 0.9874 ± 0.0061 | 1 ± 0.03 | 0.982 ± 0.012 | 0.9619 ± 0.0025 | 0.989 ± 0.012
30 | E7EQR4 and related entries (UniProt P15311) | 0.959 ± 0.024 | 0.957 ± 0.026 | 0.925 ± 0.034 | 0.972 ± 0.047 | 0.953 ± 0.053 | 0.93 ± 0.04

Reformatted: entries from further up.
Row,Target,NP40-soluble protein abundance (concentration: 1mM),NP40-soluble protein abundance (concentration: 2mM),NP40-soluble protein abundance (concentration: 4mM),NP40-soluble protein abundance (concentration: 6mM),NP40-soluble protein abundance (concentration: 8mM),NP40-soluble protein abundance (concentration: 10mM)
3,E5RHG8 and related entries (UniProt Q15369),1.02 ± 0.062,0.99 ± 0.011,0.94 ± 0.031,1.03 ± 0.036,0.948 ± 0.02,0.899 ± 0.034
4,F6V2D4 and related entries (UniProt O00214),0.975 ± 0.066,0.999 ± 0.077,1.18 ± 0.35,1.05 ± 0.19,1.08 ± 0.16,1.04 ± 0.16

From the supplement of paper PMC6411743
